Tested on: vascular smooth cell line A10
Assay: Inhibition of high glucose-induced proliferation of A10 cells (EC100)
Format: cell-based

For `CC(C)=CC(=O)O[C@H]1Cc2cc3ccc(=O)oc3cc2OC1(C)C` [Decursin, decursin], the “Therapeutic index (IC50/EC100)” value (IC50 divided by EC100) was 11.5.

`C/C=C(/C)C(=O)O[C@H]1Cc2cc3ccc(=O)oc3cc2OC1(C)C` [Decursinol angelate, decursinol angelate] was tested, and the “Therapeutic index (IC50/EC100)” value (IC50 divided by EC100) was 28.1.

For `CC1(C)Oc2cc3oc(=O)ccc3cc2C[C@@H]1O` [Decursinol, decursinol], the “Therapeutic index (IC50/EC100)” value (IC50 divided by EC100) was over 49.5 and the “Therapeutic index (IC50/EC100)” value (IC50 divided by EC100, listed as decursinol) was 34.7.

Reference: patent US20240139151A1, “COMPOSITION INCLUDING DECURSINOL AS ACTIVE INGREDIENT FOR PREVENTING OR TREATING SMOOTH MUSCLE CELL PROLIFERATIVE DISEASES” (KYUNGSUNG UNIVERSITY INDUSTRY COOPERATION FOUNDATION, priority 2021, published 2024)
